The source of these data is PMC13623127.

Amino acid sequences for entries named in this document (tags omitted).
UniProt P23297: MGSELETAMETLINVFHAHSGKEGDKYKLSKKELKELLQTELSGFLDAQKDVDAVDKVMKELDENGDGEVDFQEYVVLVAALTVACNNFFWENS
UniProt P29034: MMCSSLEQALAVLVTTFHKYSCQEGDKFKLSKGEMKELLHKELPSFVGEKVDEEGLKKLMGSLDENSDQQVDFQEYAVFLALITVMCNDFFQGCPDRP
UniProt P26447: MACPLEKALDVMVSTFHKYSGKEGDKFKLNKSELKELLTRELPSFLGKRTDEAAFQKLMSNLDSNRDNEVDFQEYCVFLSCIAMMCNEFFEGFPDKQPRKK
UniProt P60903: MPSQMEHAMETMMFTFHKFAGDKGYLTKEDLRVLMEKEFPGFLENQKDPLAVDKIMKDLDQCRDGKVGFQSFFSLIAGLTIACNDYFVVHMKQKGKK

Common to all, as to assay: SPR; TNFSF member immobilised by amine coupling on a ProteOn GLH chip, S100 protein as analyte; 25°C; 10 mM HEPES-NaOH, 150 mM NaCl, 0.05% TWEEN 20, 1 mM CaCl2, pH 7.4; both purified
In experiment [1] the target is BAFF, TNF ligand superfamily member 13B, soluble form (human).
Experiment [2] deals with CD40L, TNF ligand superfamily member 5, soluble form (human).
Experiment [3] has as its target FasL, TNF ligand superfamily member 6, soluble form (human).
Experiment [4] addresses OX40L, TNF ligand superfamily member 4, soluble form (human).
The target in experiment [5] is T1, RANKL, TNF ligand superfamily member 11, soluble form (human).
T1 sequence: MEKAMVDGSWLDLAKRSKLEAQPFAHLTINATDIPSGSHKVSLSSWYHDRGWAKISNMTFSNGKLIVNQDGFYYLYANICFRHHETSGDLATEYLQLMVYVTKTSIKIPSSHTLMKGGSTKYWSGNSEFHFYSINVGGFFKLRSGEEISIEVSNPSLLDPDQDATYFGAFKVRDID

Results are given in words; binding and its absence hold for the method and conditions named.

On to S100A1 (from UniProt P23297 1-94), for which the binding entry in experiment [1], in experiment [2], in experiment [3], in experiment [4] and in experiment [5] was “no binding (tested: analyte 62.5 nM to 16 μM)” each time.
As to S100A2 (from UniProt P29034 1-98), the binding result in experiment [1], in experiment [2], in experiment [3], in experiment [4] and in experiment [5] was “no binding (tested: analyte 62.5 nM to 16 μM)” throughout.
Take S100A4 (from UniProt P26447 1-101): the binding entry in experiment [1], in experiment [2], in experiment [3], in experiment [4] and in experiment [5] was “no binding (tested: analyte 62.5 nM to 16 μM)” each time.
Regarding S100A10 (from UniProt P60903 1-97), the binding result in experiment [1], in experiment [2], in experiment [3], in experiment [4] and in experiment [5] was “no binding (tested: analyte 62.5 nM to 16 μM)” each time.
